From PubChem BioAssay AID662 (National Center for Advancing Translational Sciences (NCATS), 2007)
“And” between values parts separate entries of the source, which are not always exact repeats. Identical values can stand only once. Some of the results follow. Further columns of the screen follow, without active or inactive calls. The list favours compounds with an active or inconclusive main result. Potencies come from curve fits of mixed quality, noted in brackets.

Experiment: Cell signaling CRE-BLA (Fsk stim)
Details: CHO CRE-bla reporter (cAMP response element driving beta-lactamase), forskolin EC10, beta-lactamase ratio; measured here: 460 nm blue channel
In short: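 Modulation of forskolin signalling: compounds in titration series added with EC10 NKH 477 to CHO cells carrying a CRE-driven beta-lactamase reporter, 3 h, 37C. CCF4 FRET ratio (460/530 nm, ex 405 nm) gives %activity and AC50.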

**Q.** Which AC50 does the source give for Cc1c(O)cccc1C(=O)N[C@@H](CSc1ccccc1)[C@H](O)CN1C[C@H]2CCCC[C@H]2C[C@H]1C(=O)NC(C)(C)C here?
**A.** 15.8 µM [falling, partial curve, poor fit]

**Q.** For COc1cc(Br)cc(-c2nc3c(c(=O)[nH]c(=O)n3Cc3ccccc3)n2C)c1O, which AC50 is on record?
**A.** 7.94 µM [rising, partial curve]

**Q.** With O=C(CSc1nnc(-c2cccnc2)n1Cc1ccco1)N1c2ccccc2Sc2ccccc21 as the compound, how does the AC50 read?
**A.** 25.1 µM [rising, single point]

**Q.** For Cc1cc(C)n(-c2nc3ccccc3nc2Nc2ccc(CC(=O)O)cc2)n1, which AC50 is on record?
**A.** 12.6 µM [rising, single point]

**Q.** For COc1ccc(-c2nc3cnc(N4CCOCC4)nc3n(-c3ccc(OC)cc3)c2=O)cc1, which AC50 is on record?
**A.** 10 µM [rising, partial curve]

**Q.** For CCCn1c(C)nc2c(NCCN3CCCC3)nc(C)nc21, which AC50 is on record?
**A.** 12.6 µM [rising, single point]

**Q.** Which AC50 does the source give for COc1cccc2cc(C(=O)NC3CC(C)(C)NC(C)(C)C3)c(=O)oc12 here?
**A.** 0.00398 µM [falling, full curve, poor fit]

**Q.** With CCOc1ccc(-c2nc(C#N)c(N3CCCCCC3)o2)cc1 as the compound, how does the AC50 read?
**A.** 3.16 µM [rising, full curve]

**Q.** With O=C(O)C1CC(=O)N(Cc2ccc3c(c2)OCO3)C1 (configuration not stated) as the compound, how does the AC50 read?
**A.** 2.51 µM [falling, full curve]

**Q.** Which AC50 does the source give for O=C1CC(c2ccc(F)cc2)CC(O)=C1C=NCCN1CCN(C(=O)Nc2ccccc2)CC1 (configuration not stated) here?
**A.** 12.6 µM [rising, single point]

**Q.** With N#Cc1cccc(NC(=O)COc2ccc(-n3ccnc3)cc2)c1 as the compound, how does the AC50 read?
**A.** 5.01 µM [falling, single point]

**Q.** For Cc1nc(N2CCOCC2)[nH]c(=O)c1CCC(C)C, which AC50 is on record?
**A.** 25.1 µM [falling, single point]

**Q.** For c1cc(-n2cnnn2)ccc1NC1=NCCC1, which AC50 is on record?
**A.** 0.316 µM [falling, full curve]

**Q.** Which AC50 does the source give for CC(C)OC(=O)c1c(NC(=O)c2cccs2)sc2c1CCCC2 here?
**A.** 15.8 µM [rising, partial curve]

**Q.** Which AC50 does the source give for NS(=O)(=O)c1ccc(NC(=O)COC(=O)CSc2n[nH]c(-c3ccccc3)n2)cc1 here?
**A.** 1 µM [falling, full curve]

**Q.** With COc1ccc(N=c2oc3cc(O)ccc3cc2C(=O)NCC2CCCO2)c(OC)c1 (configuration not stated) as the compound, how does the AC50 read?
**A.** 12.6 µM [rising, partial curve]

**Q.** With CC(C)CC(=O)NCC(C)NC(=O)CC(C)C (configuration not stated) as the compound, how does the AC50 read?
**A.** 2.51 µM [rising, partial curve, poor fit]

**Q.** Which AC50 does the source give for CSc1nc(-c2ccco2)nn1C(=O)c1ccc(C)cc1 here?
**A.** 12.6 µM [falling, partial curve]

**Q.** For CCOC(=O)N1CCN(C(=O)CSCC(=O)N=c2sc3ccccc3n2C)CC1, which AC50 is on record?
**A.** 0.1 µM [falling, single point]

**Q.** With CCOC(=O)c1sc(N)nc1-c1ccccc1 as the compound, how does the AC50 read?
**A.** 7.94 µM [rising, partial curve]

**Q.** For CCOC(=O)C1CCN(C(=O)c2ccc3c(c2)OCO3)CC1, which AC50 is on record?
**A.** 25.1 µM [falling, single point]

**Q.** Which AC50 does the source give for OC(COc1ccc2ccccc2c1Cl)CN1CCOCC1 (configuration not stated) here?
**A.** 0.00398 µM [falling, full curve, poor fit]

**Q.** Which AC50 does the source give for CCOC(=O)COc1ccc(C2NC(C(=O)O)CS2)cc1 (configuration not stated) here?
**A.** 1.26 µM [falling, partial curve]

**Q.** Which AC50 does the source give for COCCN1Cc2cccc(C(=O)Nc3c(C)cccc3C)c2C1=O here?
**A.** 0.251 µM [falling, full curve, poor fit]

**Q.** Which AC50 does the source give for COc1ccccc1C1C(C(=O)c2sc(C)nc2C)=C(O)C(=O)N1CCN1CCOCC1 (configuration not stated) here?
**A.** 5.01 µM [rising, single point]

**Q.** With O=C(Oc1ccccc1)N1CCC2(CCCN(c3ccccn3)C2)CC1 as the compound, how does the AC50 read?
**A.** 25.1 µM [rising, single point]

**Q.** With CC(=O)N1CCC2(CCCN(c3ccc(-c4ccccc4)cc3)C2)CC1 as the compound, how does the AC50 read?
**A.** 1.58 µM [rising, partial curve]

**Q.** For CN1C(=O)c2cccc3c(S(=O)(=O)NCc4ccco4)ccc1c23, which AC50 is on record?
**A.** 25.1 µM [rising, partial curve]

**Q.** With Cc1cc(N2CCN(C(=O)c3ccco3)CC2)n2nc(C)c(-c3ccccc3)c2n1 as the compound, how does the AC50 read?
**A.** 10 µM [rising, partial curve]

**Q.** With CC(C)CSc1nc2c(c(=O)[nH]c(=O)n2C)n1CC(O)COc1cccc2ccccc12 (configuration not stated) as the compound, how does the AC50 read?
**A.** 12.6 µM [rising, single point]

**Q.** With CC1=C(C#N)C(Nc2cccc(C)n2)(C(F)(F)F)C(=O)N1 (configuration not stated) as the compound, how does the AC50 read?
**A.** 0.316 µM [falling, full curve]

**Q.** For CCCC(=O)N(Cc1cc2cc(C)ccc2[nH]c1=O)c1ccccc1OC, which AC50 is on record?
**A.** 5.01 µM [rising, single point]

**Q.** For O=C(Nc1sccc1C(=O)NCc1ccco1)c1cccnc1, which AC50 is on record?
**A.** 10 µM [rising, partial curve]

**Q.** With CCc1ccccc1NC(=O)c1ccc(F)c(S(=O)(=O)N2CCC(C(N)=O)CC2)c1 as the compound, how does the AC50 read?
**A.** 5.01 µM [falling, single point]

**Q.** With COc1ccc(CC2S/C(=C(\C#N)C(=O)NCc3ccco3)N(c3ccc(C)cc3)C2=O)cc1 (configuration not stated) as the compound, how does the AC50 read?
**A.** 20 µM [rising, single point]

**Q.** Which AC50 does the source give for O=C(c1cnccn1)N1CCC2(CCCN(c3cccc(-c4ccccc4)c3)C2)CC1 here?
**A.** 25.1 µM [rising, single point]

**Q.** Which AC50 does the source give for Cc1ccc(-c2nn3c(-c4ccco4)nnc3c3ccccc23)cc1S(=O)(=O)N1CCOCC1 here?
**A.** 12.6 µM [rising, single point]

**Q.** For COc1ccc(-n2c(=O)c(-c3cccs3)nc3cnc(N4CCNCC4)nc32)cc1, which AC50 is on record?
**A.** 3.16 µM [rising, full curve]

**Q.** For Cc1ccc2nnc(Cl)n2n1, which AC50 is on record?
**A.** 3.16 µM [falling, partial curve, poor fit]

**Q.** With COc1cccc(NS(=O)(=O)c2c(C)cc(C)cc2C)c1 as the compound, how does the AC50 read?
**A.** 0.398 µM [falling, full curve]

**Q.** For COC(=O)[C@@]1(Cc2ccccc2)[C@H]2c3cc(C(=O)N4CCCC4)n(Cc4ccc(C)o4)c3C[C@H]2CN1C(=O)c1ccccc1, which AC50 is on record?
**A.** 2 µM [rising, partial curve]

**Q.** For Nc1ccc(N=Nc2ccccc2)c(N)n1, which AC50 is on record?
**A.** 10 µM [falling, partial curve] and 15.8 µM [falling, single point]

**Q.** For COc1ccc2[nH]cc(CCNc3ncnc4ccc(-c5cccc(C#N)c5)cc34)c2c1, which AC50 is on record?
**A.** 2 µM [rising, full curve, poor fit]

**Q.** For Cc1ccc(OCCCC(=O)Nc2ccc3c(c2)OCO3)cc1, which AC50 is on record?
**A.** 1 µM [falling, full curve, poor fit]

**Q.** Which AC50 does the source give for CCCn1c2c(c(O)c(C(=O)NC)c1=O)CCCC2 here?
**A.** 10 µM [rising, partial curve]

**Q.** For Cc1ccsc1CNn1cnnc1SCc1ccccc1F, which AC50 is on record?
**A.** 0.00316 µM [falling, full curve, poor fit]

**Q.** For COCCn1c(C)cc(C(=O)COc2nc3ccccc3nc2C)c1C, which AC50 is on record?
**A.** 25.1 µM [falling, single point]

**Q.** Which AC50 does the source give for O=C(Nc1ccc2c(c1)OCO2)c1cnn2c(C(F)(F)F)cc(-c3ccco3)nc12 here?
**A.** 3.98 µM [rising, partial curve]

**Q.** For CCCCCN(C(=O)NC(=O)Nn1cnnc1)S(C)(=O)=O, which AC50 is on record?
**A.** 0.0501 µM [falling, partial curve]

**Q.** With CC1=C(C(=O)Nc2ccc(Cl)cc2)C(c2cccs2)n2nnnc2N1 (configuration not stated) as the compound, how does the AC50 read?
**A.** 0.398 µM [falling, full curve]

**Q.** For CCc1c(C)c2cc(Cl)c(O)c(CN(CC)CC)c2oc1=O, which AC50 is on record?
**A.** 10 µM [rising, partial curve]

**Q.** With Cc1cc(C)nc(SCc2nnc(SCC(=O)Nc3ncc(C)s3)n2Cc2ccco2)n1 as the compound, how does the AC50 read?
**A.** 10 µM [rising, partial curve]

**Q.** For COC(=O)c1ccc(C=O)cc1, which AC50 is on record?
**A.** 0.794 µM [falling, full curve, poor fit]

**Q.** With CCOC(=O)C1CCN(c2nc(-c3ccccc3)nc3c2oc2ccccc23)CC1 as the compound, how does the AC50 read?
**A.** 25.1 µM [rising, single point]

**Q.** For COc1cc(S(=O)(=O)NCc2ccccc2)ccc1F, which AC50 is on record?
**A.** 5.01 µM [falling, full curve, poor fit]

**Q.** With Cc1cc2c(c(=O)n1CCN(C)C)C(c1ccncc1)C(C#N)=C(N)O2 (configuration not stated) as the compound, how does the AC50 read?
**A.** 2.51 µM [falling, full curve]

**Q.** With COc1ccccc1N1CCN(CC(=O)Nc2ccc(C)c(F)c2)CC1 as the compound, how does the AC50 read?
**A.** 0.398 µM [falling, full curve]

**Q.** With COc1ccc2nc(N3CCCCC3)c(C#N)cc2c1 as the compound, how does the AC50 read?
**A.** 12.6 µM [rising, single point]

**Q.** For O=C(NCCO)c1c(O)c2cccc3c2n(c1=O)CC3, which AC50 is on record?
**A.** 0.0316 µM [falling, partial curve, poor fit]

**Q.** With CCCCCCNc1cc2n(c(=O)n1)CCc1cc(OC)c(OC)cc1-2 as the compound, how does the AC50 read?
**A.** 0.794 µM [rising, full curve]

**Q.** For CCOc1ccc(C(C)=O)cc1COc1ccc(-n2cnnn2)cc1, which AC50 is on record?
**A.** 25.1 µM [rising, single point]

**Q.** For O=C(NCc1cccnc1)NC1(C(F)(F)F)Oc2ccccc2O1, which AC50 is on record?
**A.** 20 µM [falling, single point]

**Q.** Which AC50 does the source give for COC(=O)c1c(NC(=O)c2nc3ccccc3s2)sc2c1CCN(C(C)=O)C2 here?
**A.** 3.98 µM [rising, full curve]

**Q.** Which AC50 does the source give for Cc1ccc(-c2nnn(CC(=O)N(Cc3cccs3)C(C(=O)NC(C)(C)C)c3ccco3)n2)o1 (configuration not stated) here?
**A.** 7.94 µM [rising, partial curve]

**Q.** Which AC50 does the source give for Cc1nc2nc(-c3ccco3)[nH]n2c(=O)c1Cc1ccccc1 here?
**A.** 1 µM [falling, partial curve]

**Q.** Which AC50 does the source give for COc1ccc(CCNC(=O)c2ccccc2NC(=O)c2ccco2)cc1OC here?
**A.** 15.8 µM [rising, partial curve]

**Q.** With COc1cc(OC)c(-c2nn3c(-c4ccco4)nnc3s2)cc1OC as the compound, how does the AC50 read?
**A.** 3.98 µM [rising, full curve]
